Experimental data published in PMC6988918.
Results are given in words; binding and its absence hold for the method and conditions named. Binding seen in cells or lysates may run through a third protein. A yes stands for co-enrichment or nearness to the bait. Other partners may have been found.

Target: Akt (protein kinase B) (rat (endogenous in rat cardiomyocytes))
Experiment: affinity purification with mass spectrometry; Akt precipitated with polyclonal Akt 1/2/3 antibody (sc-8312) and protein A-Sepharose from 1% NP-40 lysates of cardiomyocytes of control and MetS rats stimulated with 100 nM insulin for 10 min; label-free mass spectrometry of the immune complexes

| Binder | binding |
| --- | --- |
| ADP/ATP translocase 2 (protein, UniProt Q09073 1-298) MTDAAVSFAKDFLAGGVAAAISKTAVAPIERVKLLLQVQHASKQITADKQYKGIIDCVVRIPKEQGVLSFWRGNLANVIRYFPTQALNFAFKDKYKQIFLGGVDKRTQFWRYFAGNLASGGAAGATSLCFVYPLDFARTRLAADVGKAGAEREFKGLGDCLVKIYKSDGIKGLYQGFNVSVQGIIIYRAAYFGIYDTAKGMLPDPKNTHIFISWMIAQSVTAVAGLTSYPFDTVRRRMMMQSGRKGTDIMYTGTLDCWRKIARDEGGKAFFKGAWSNVLRGMGGAFVLVLYDEIKKYT | binds |
| Long-chain specific acyl-CoA dehydrogenase (protein, UniProt P15650 31-430) GAEARLETPSAKKLTDIGIRRIFSSEHDIFRESVRKFFQEEVIPYHEEWEKAGEVSRELWEKAGKQGLLGINIAEKHGGIGGDLLSTAVTWEEQAYSNCTGPGFSLHSDIVMPYIANYGTKEQIEQFIPQMTAGKCIGAIAMTEPGAGSDLQGVRTNAKRSGSDWILNGSKVFITNGWLSDLVIVVAVTNREARSPAHGISLFLVENGMKGFIKGKKLHKMGMKAQDTAELFFEDVRLPASALLGEENKGFYYLMQELPQERLLIADLAISACEFMFEETRNYVRQRKAFGKTVAHIQTVQHKLAELKTNICVTRAFVDSCLQLHETKRLDSASASMAKYWASELQNTVAYQCVQLHGGWGYMWEYPIAKAYVDARVQPIYGGTNEIMKELIARQIVSDS | binds |

Other lines, results leading:

| binding | Binder |
| --- | --- |
| binds | Methylcrotonoyl-CoA carboxylase beta chain (protein, UniProt Q5XIT9 23-563) YHGDAVARLGTQPDSGSSTYQENYEQMKALVNQLHERAQYVRLGGSEKARARHTSRGKLLPRDRIDNLIDPGSPFLEFSQFAGYKLYGEEEVPAGGIITGIGRVSGVECMIVANDATVKGGTYYPVTVKKHVRAQEIALQNRLPCIYLVDSGGANLPRQADTFPDRDHFGRIFYNQAIMSSKNITQIAVVMGSCTAGGAYVPAMADENIIVQRQGTIFLAGPPLVKAATGEEVSAEDLGGADLHCRRSGVTDHYALDDHHALHLTRKVVRSLNYQKKLDVTVEPSEEPLFPADELYGIVGANLKRSFDVREVIARIVDGSRFNEFKALYGDTLVTGFARIFGYPVGIIGNNGVLFSESAKKGAHFVQLCCQRNIPLLFLQNITGFMVGKDYEAEGIAKDGAKMVAAVSCAKVPKITVIIGGSYGAGNYGMCGRAYSPRFLYMWPNARISVMGGEQAATVLATVARDQRAREGKQFSSAEEAALKEPIIKRFEEEGNPYYSSARLWDDGIIDPVDTRLVLGLSISAALNAPIQRTDFGIFRM |
| binds | Solute carrier family 25 member 31 (protein, UniProt D3ZB81 1-293) MSNNSSKKQSSKKTLFDPVSFAKDLLAGGVAAAVSKTAVAPIERVKLLLQVQASSKQISPEARYKGMIDCLVRIPREQGFLSYWRGNLANVIRYFPTQALNFAFKDKYKQLFMSGVNKEKQFWRWFLANLASGGAAGATSLCVVYPLDFARTRLGVDIGKGPEQRQFTGLGDCIMKIAKSDGLIGLYQGFGVSVQGIIVYRASYFGAYDTVKGLLPKPKETPFLISFIIAQIVTTGSGILSYPFDTVRRRMMMQSGESERQYKGTIDCFLKIYNHEGMAAFFRGAFSNILRVI |
| binds | Pyruvate dehydrogenase E1 component subunit alpha (protein, UniProt P26284 30-390) FANDATFEIKKCDLHRLEEGPPVTTVLTREDGLKYYRMMQTVRRMELKADQLYKQKIIRGFCHLCDGQEACCVGLEAGINPTDHLITAYRAHGFTFNRGHAVRAILAELTGRRGGCAKGKGGSMHMYAKNFYGGNGIVGAQVPLGAGIALACKYNGKDEVCLTLYGDGAANQGQIFEAYNMAALWKLPCIFICENNRYGMGTSVERAAASTDYYKRGDFIPGLRVDGMDILCVREATKFAAAYCRSGKGPILMELQTYRYHGHSMSDPGVSYRTREEIQEVRSKSDPIMLLKDRMVNSNLASVEELKEIDVEVRKEIEDAAQFATADPEPPLEELGYHIYSSDPPFEVRGANQWIKFKSVS |
